Results are given in words; binding and its absence hold for the method and conditions named. In cells and extracts the contact can be indirect. Some entries that bind do so weakly or less than the wild type.
Assays:
[1] = biological target: ORF2 protein of hepatitis E virus (full-length) (hepatitis E virus (strain not stated)) (UniProt P29326); assay: co-IP; Huh7 cells transfected with ORF2 (alone or with myc tagged full-length or ΔF-βTRCP), [35S]-cys/met labeled; lysates immunoprecipitated with anti-ORF2 antibody, immunoblotted with anti-IκBα, SKP1, CUL1, SKP2 or anti-Myc antibodies
[2] = biological target: SKP2 (F-box protein), endogenous (human (endogenous in Huh7)) (UniProt Q13309); assay: co-IP; Huh7 cells transfected with pSGI, ORF2 or c-Myc constructs; lysates immunoprecipitated with anti-SKP2 or anti-myc antibody, immunoblotted with anti-SKP2 or anti-Myc antibodies
[3] = biological target: ORF2 protein of hepatitis E virus (full-length) (hepatitis E virus (strain not stated)) (UniProt P29326); assay: pull-down; ORF2 proteins immunoprecipitated from transfected Huh7 lysates with anti-ORF2 antibody, beads incubated with in vitro translated [35S]-cys/met labeled full-length βTRCP; bound βTRCP seen by autoradiography; only the target purified

Protein sequences, listed by entry. Tags and fused reporters are not part of them. Residues count along the entry.
UniProt P29326, residues 20-660: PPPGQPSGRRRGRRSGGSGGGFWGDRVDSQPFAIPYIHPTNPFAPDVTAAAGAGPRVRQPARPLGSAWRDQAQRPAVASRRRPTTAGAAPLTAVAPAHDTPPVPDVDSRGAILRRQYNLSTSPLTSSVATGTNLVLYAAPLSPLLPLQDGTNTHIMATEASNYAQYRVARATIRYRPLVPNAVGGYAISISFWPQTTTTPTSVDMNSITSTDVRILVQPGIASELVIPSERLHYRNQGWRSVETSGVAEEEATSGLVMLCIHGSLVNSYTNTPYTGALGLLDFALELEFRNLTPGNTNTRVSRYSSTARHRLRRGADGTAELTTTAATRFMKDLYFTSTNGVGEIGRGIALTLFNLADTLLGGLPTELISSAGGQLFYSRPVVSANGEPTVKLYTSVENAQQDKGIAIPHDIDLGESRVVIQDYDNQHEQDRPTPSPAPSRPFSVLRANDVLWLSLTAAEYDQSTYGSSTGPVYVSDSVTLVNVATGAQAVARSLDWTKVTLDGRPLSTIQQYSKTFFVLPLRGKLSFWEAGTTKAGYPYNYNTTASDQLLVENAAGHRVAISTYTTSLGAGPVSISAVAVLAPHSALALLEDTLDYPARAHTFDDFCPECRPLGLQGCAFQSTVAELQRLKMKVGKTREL
UniProt Q13309: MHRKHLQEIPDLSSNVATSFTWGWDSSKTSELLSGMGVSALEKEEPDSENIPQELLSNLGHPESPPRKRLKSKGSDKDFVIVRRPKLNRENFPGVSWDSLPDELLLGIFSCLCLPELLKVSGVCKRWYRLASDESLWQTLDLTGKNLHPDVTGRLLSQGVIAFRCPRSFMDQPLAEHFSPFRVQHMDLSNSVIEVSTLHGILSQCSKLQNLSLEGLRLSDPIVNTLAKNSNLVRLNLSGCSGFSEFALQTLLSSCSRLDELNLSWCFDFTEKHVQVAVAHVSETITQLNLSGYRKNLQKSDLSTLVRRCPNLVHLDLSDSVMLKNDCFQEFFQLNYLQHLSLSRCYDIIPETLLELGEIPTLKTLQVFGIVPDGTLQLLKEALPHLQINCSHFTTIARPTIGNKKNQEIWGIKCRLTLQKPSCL
UniProt Q9Y297: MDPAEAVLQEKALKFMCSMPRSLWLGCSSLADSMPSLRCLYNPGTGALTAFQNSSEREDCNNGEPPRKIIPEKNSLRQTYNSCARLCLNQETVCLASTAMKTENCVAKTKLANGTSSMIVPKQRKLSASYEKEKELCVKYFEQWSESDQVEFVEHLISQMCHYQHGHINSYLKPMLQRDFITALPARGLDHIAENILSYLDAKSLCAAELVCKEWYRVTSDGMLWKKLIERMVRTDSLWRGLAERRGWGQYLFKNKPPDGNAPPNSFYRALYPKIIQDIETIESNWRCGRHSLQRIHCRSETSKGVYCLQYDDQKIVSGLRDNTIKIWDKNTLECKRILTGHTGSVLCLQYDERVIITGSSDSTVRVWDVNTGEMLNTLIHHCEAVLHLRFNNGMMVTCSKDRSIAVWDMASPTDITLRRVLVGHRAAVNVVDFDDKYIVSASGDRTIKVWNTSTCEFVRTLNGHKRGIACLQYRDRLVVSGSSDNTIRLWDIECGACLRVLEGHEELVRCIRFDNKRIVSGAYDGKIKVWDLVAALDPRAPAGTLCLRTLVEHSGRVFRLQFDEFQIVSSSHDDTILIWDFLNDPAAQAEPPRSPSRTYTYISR
UniProt P01106: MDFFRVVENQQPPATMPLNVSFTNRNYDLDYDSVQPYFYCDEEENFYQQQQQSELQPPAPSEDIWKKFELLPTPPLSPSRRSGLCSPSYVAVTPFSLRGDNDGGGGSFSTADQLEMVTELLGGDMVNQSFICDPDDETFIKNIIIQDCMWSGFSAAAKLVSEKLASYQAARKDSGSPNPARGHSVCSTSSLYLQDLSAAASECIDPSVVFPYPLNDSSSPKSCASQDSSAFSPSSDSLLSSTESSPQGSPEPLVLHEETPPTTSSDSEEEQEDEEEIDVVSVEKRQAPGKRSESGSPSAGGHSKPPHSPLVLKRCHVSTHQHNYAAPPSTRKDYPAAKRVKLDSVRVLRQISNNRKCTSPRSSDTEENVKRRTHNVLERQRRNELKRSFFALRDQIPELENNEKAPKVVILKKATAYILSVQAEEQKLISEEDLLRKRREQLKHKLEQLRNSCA
UniProt P25963: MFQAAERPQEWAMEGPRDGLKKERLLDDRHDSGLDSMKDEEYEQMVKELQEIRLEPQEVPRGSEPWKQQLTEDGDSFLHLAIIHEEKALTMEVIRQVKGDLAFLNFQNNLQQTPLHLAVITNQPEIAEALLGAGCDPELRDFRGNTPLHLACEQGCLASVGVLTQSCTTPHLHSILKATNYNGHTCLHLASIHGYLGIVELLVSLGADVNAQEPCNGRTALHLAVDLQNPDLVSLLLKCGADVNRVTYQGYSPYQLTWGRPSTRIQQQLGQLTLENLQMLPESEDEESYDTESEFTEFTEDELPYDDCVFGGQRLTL
UniProt P63208: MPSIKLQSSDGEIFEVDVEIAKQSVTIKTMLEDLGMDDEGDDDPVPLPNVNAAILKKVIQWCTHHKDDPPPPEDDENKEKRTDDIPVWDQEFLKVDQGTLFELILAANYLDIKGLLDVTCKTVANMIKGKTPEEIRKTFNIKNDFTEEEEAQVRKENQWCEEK

Substance | binding [1] | binding [2] | other results
myc tagged full-length beta transducin repeat containing protein (βTRCP) (from UniProt Q9Y297 1-605) | binds | – | –
c-myc protein, overexpressed (pSGI c-myc) (from UniProt P01106 1-454) | – | binds | –
c-myc protein, endogenous (from UniProt P01106 1-454) | – | binds | –
in vitro translated [35S]-cys/met labeled full-length βTRCP protein (from UniProt Q9Y297 1-605) | – | – | binding [3]: binds
I kappa B alpha (IκBα) (from UniProt P25963 1-317) | no binding | – | –
SKP1 (from UniProt P63208 1-163) | no binding | – | –
